# Primary screen of a compound library

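Whole-cell growth test on Mycobacterium tuberculosis, read after 4 days in a medium based on cholesterol and the lipid DPPC; the read-out is not stated. Concentration: 500 µM. Higher reads as more growth inhibition (inferred: compounds with an IC50 in retests scored well above the rest). Size under these conditions: about 18,000 compounds, about 900 of them at 50% or above in at least one test.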

The filed quantity is “Percent Effect” (%).
The controls that fix the scale are not given in the record; negative values are as filed.
This is an unselected part of the compounds tested.

CC(=O)N1CCN(Cc2cccc(N)n2)CC1 gave -1.832%.
CSCCC(O)C(=O)NCCc1ccnn1C (centres unmarked) gave 3.688%.
NCCc1nc2cc(F)ccc2s1 gave 13.36%.
CC(C)n1nccc1NC(=O)N1CCCSCC1 gave 10.47%.
COCCNS(=O)(=O)c1ccc(C#N)cc1 gave -16.04%.
N#CC(c1ccc(Br)cc1)N1CCNCC1 (centres unmarked) gave 1.268%.
O=C1CC2(CCc3ccccc32)CN1 (centres unmarked) gave 22.98%.
CN(C)Cc1ccccc1CNC(=O)[C@@H]1CCCN1 gave 4.498%.
Cc1csc(NC(=O)CCn2ccccc2=O)n1 gave -6.839%.
COCC(O)CN(C)Cc1c(C)cccc1C (centres unmarked) gave 21.49%.
CCN(Cc1ccco1)C(=O)c1cc(C(C)=O)c[nH]1 gave 17.87%.
CCC(=O)Nc1ccc(Br)cn1 gave 12.7%.
CN1CCC(CNC(=O)COc2cccnc2)C1 (centres unmarked) gave -0.9035%.
CN(C(=O)COCC1CC1)c1nc2ccccc2n1C gave 1.976%.
CC(c1cccnc1)N(C)C(=O)c1ccccc1C#N (centres unmarked) gave -0.8882%.
NC(=O)CN1CCC(OCCCc2ccccc2)C1 (centres unmarked) gave 75.13%.
CCOc1ccc(Cl)cc1CNCCNCC(C)O (centres unmarked) gave 52.82%.
Cn1ncnc1CCNC(=O)c1ccc(CN)cc1 gave 7.793%.
O=C(NCC1CCCO1)c1nc(-c2ccccc2)no1 (centres unmarked) gave -8.874%.
Cn1nc(CN)c2ccccc21 gave 21.98%.
COCCOCc1cccc(NC(=O)NC(C)C)c1 gave 30.43%.
CO[C@H]1[C@@H]2CC[C@H]1CN(C(=O)c1cc(Cl)c[nH]c1=O)C2 gave -21.87%.
O=S1(=O)CCC(CNc2ccnc3ccc(Cl)cc23)C1 (centres unmarked) gave -59.99%.
CC(C)n1ccc(CN2C(=O)CC(C)(C)C2=O)n1 gave 1.218%.
CN(C)CCNC(=O)Cn1cc(NCC(C)(C)C)cn1 gave -2.411%.
COc1cccc(OCCN)c1 gave 15.2%.
CC[C@H](N)C(=O)N1CCN(C2CC2)C(=O)C1 gave -12.33%.
COC[C@@H]1CCCN1Cc1cc(OC)ccn1 gave -6.421%.

For reference, 3 entries once more:

compound	percent effect
CC(C)n1nccc1NC(=O)N1CCCSCC1	10.47
CN1CCC(CNC(=O)COc2cccnc2)C1 (centres unmarked)	-0.9035
CCOc1ccc(Cl)cc1CNCCNCC(C)O (centres unmarked)	52.82

Source: ChEMBL document CHEMBL3988442, “University of Dundee, Small-Polar-MMV Screening Library” (2021).